Results taken from US20090305946A1.
Results are given in words; binding and its absence hold for the method and conditions named. In cells and extracts the contact can be indirect. Some entries that bind do so weakly or less than the wild type.

By UniProt entry, the sequences of proteins in these tests, tags left out. Where a name states a change or a piece, a line headed by the entry shows the natural chain unless it says otherwise. Chains listed by the source or under a name are the forms on record and can include a tag or linker.
human G-protein GαoB (P09471, form named): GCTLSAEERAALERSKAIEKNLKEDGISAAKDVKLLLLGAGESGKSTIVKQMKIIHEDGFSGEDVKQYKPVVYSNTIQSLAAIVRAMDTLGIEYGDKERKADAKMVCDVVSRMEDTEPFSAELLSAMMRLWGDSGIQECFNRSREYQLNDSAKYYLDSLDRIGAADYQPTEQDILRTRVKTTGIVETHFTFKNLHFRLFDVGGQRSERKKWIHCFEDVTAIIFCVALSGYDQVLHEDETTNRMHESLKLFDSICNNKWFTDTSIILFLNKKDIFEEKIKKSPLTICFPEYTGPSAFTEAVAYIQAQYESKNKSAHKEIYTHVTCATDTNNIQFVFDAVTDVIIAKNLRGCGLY

Assays:
[1] = molecular target: tail-less PS-2 (amino acids 1-410 of PS-2) (human) (UniProt P49810); assay: co-immunoprecipitation with MAb to PS-2, Western blot with anti-Go (FIG. 2)
[2] = molecular target: tail-less PS-2 (amino acids 1-410 of PS-2) (human) (UniProt P49810); assay: co-immunoprecipitation with PS-2 MAb, Western blot with anti-Go

In the case of “human G-protein GαoB (from UniProt P09471 2-354)”, the binding [1] is reported as “binds” and the binding [2] is reported as “binds”.
